These are yes or no findings as the source states them, for the method shown. Binding seen in cells or lysates may run through a third protein. These calls come from enrichment with a bait or labelling near it, and not all partners need be listed. Where a sequence is shown, tags or fusion partners need not be part of it. Each block holds one molecule with its values, some of them ahead of it.
Key:
[1] = target: C-terminally SF (Strep-Flag)-tagged human ARL13B (wild type) (human) (UniProt Q3SXY8); experiment: affinity purification with mass spectrometry; SF-TAP: two steps (Strep-Tactin Superflow, then anti-Flag M2 agarose, Flag peptide elution) from lysates of HEK293T cells transiently expressing SF-tagged ARL13B; lysis in TBS with 0.5% Nonidet-P40, 4°C; compared with SF tag alone; LC-MS/MS
[2] = target: N-terminally SF (Strep-Flag)-tagged human ARL13B (wild type) (human) (UniProt Q3SXY8); experiment: as above
[3] = target: SF-ARL13B(T35N), predicted GDP-locked human ARL13B (human) (UniProt Q3SXY8); experiment: as above
[4] = target: N-terminally SF (Strep-Flag)-tagged human ARL13B (wild type) (human) (UniProt Q3SXY8); experiment: affinity purification with mass spectrometry; SILAC with one-step Strep-Tactin purification from HEK293T lysates; SF-tagged ARL13B against SF-TAP alone or mutated SF-tagged ARL13B; eluates combined; quantitative MS, at least 2-fold enrichment

Protein sequences, listed by entry. Tags and fused reporters are not part of them. Lines headed by an entry give the natural chain unless they say otherwise; changes in a name come on top.
UniProt Q3SXY8: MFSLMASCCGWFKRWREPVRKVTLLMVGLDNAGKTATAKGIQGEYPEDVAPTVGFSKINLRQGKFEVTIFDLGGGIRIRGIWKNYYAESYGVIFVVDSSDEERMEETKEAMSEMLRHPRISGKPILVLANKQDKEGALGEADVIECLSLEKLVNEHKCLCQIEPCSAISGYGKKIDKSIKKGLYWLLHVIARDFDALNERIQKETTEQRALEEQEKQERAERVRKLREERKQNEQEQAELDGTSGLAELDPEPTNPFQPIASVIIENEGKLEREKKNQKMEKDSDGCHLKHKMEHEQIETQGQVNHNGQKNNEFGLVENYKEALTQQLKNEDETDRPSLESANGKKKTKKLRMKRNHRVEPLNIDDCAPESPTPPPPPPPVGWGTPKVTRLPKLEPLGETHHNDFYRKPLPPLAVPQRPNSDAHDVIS
UniProt A0AVF1: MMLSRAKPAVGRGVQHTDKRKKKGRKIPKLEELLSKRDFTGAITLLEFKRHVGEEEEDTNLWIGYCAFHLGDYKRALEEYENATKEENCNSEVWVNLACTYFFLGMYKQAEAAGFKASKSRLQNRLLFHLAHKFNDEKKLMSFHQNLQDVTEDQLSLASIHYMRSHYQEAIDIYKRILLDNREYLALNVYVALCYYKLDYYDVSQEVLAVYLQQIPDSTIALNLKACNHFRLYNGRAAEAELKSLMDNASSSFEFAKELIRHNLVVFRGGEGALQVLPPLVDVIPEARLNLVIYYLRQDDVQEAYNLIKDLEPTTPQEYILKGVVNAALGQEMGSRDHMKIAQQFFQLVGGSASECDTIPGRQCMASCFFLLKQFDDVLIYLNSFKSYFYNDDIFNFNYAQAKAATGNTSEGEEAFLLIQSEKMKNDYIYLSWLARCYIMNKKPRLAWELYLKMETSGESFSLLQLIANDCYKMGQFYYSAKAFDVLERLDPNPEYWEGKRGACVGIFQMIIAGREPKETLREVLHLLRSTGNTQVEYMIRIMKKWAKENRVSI

binding [1]: binds
binding [2]: binds
binding [3]: binds
binding [4]: binds
Molecule: tetratricopeptide repeat domain 26 (from UniProt A0AVF1 1-554)

binding [1]: binds
binding [2]: binds
binding [3]: binds
binding [4]: binds
B1: intraflagellar transport 52 (protein, UniProt Q9Y366 1-437)
chain: MEKELRSTILFNAYKKEIFTTNNGYKSMQKKLRSNWKIQSLKDEITSEKLNGVKLWITAGPREKFTAAEFEILKKYLDTGGDVFVMLGEGGESRFDTNINFLLEEYGIMVNNDAVVRNVYHKYFHPKEALVSSGVLNREISRAAGKAVPGIIDEESSGNNAQALTFVYPFGATLSVMKPAVAVLSTGSVCFPLNRPILAFYHSKNQGGKLAVLGSCHMFSDQYLDKEENSKIMDVVFQWLTTGDIHLNQIDAEDPEISDYMMLPYTATLSKRNRECLQESDEIPRDFTTLFDLSIFQLDTTSFHSVIEAHEQLNVKHEPLQLIQPQFETPLPTLQPAVFPPSFRELPPPPLELFDLDETFSSEKARLAQITNKCTEEDLEFYVRKCGDILGVTSKLPKDQQDAKHILEHVFFQVVEFKKLNQEHDIDTSETAFQNNF

binding [1]: binds
binding [2]: binds
binding [3]: binds
binding [4]: binds
B2: intraflagellar transport 74 (protein, UniProt Q96LB3 1-600)
chain: MASNHKSSAARPVSRGGVGLTGRPPSGIRPLSGNIRVATAMPPGTARPGSRGCPIGTGGVLSSQIKVAHRPVTQQGLTGMKTGTKGPQRQILDKSYYLGLLRSKISELTTEVNKLQKGIEMYNQENSVYLSYEKRAETLAVEIKELQGQLADYNMLVDKLNTNTEMEEVMNDYNMLKAQNDRETQSLDVIFTERQAKEKQIRSVEEEIEQEKQATDDIIKNMSFENQVKYLEMKTTNEKLLQELDTLQQQLDSQNMKKESLEAEIAHSQVKQEAVLLHEKLYELESHRDQMIAEDKSIGSPMEEREKLLKQIKDDNQEIASMERQLTDTKEKINQFIEEIRQLDMDLEEHQGEMNQKYKELKKREEHMDTFIETFEETKNQELKRKAQIEANIVALLEHCSRNINRIEQISSITNQELKMMQDDLNFKSTEVQKSQSTAQNLTSDIQRLQLDLQKMELLESKMTEEQHSLKSKIKQMTTDLEIYNDLPALKSSGEEKIKKLHQERMILSTHRNAFKKIMEKQNIEYEALKTQLQENETHSQLTNLERKWQHLEQNNFAMKEFIATKSQESDYQPIKKNVTKQIAEYNKTIVDALHSTSGN

binding [1]: binds
binding [2]: binds
binding [3]: binds
binding [4]: binds
B3: intraflagellar transport 46 (protein, UniProt Q9NQC8 1-304)
chain: MADNSSDECEEENNKEKKKTSQLTPQRGFSENEDDDDDDDDSSETDSDSDDDDEEHGAPLEGAYDPADYEHLPVSAEIKELFQYISRYTPQLIDLDHKLKPFIPDFIPAVGDIDAFLKVPRPDGKPDNLGLLVLDEPSTKQSDPTVLSLWLTENSKQHNITQHMKVKSLEDAEKNPKAIDTWIESISELHRSKPPATVHYTRPMPDIDTLMQEWSPEFEELLGKVSLPTAEIDCSLAEYIDMICAILDIPVYKSRIQSLHLLFSLYSEFKNSQHFKALAEGKKAFTPSSNSTSQAGDMETLTFS

binding [1]: binds
binding [2]: binds
binding [3]: binds
binding [4]: binds
B4: tetratricopeptide repeat domain 30A (protein, UniProt Q86WT1 1-665)
chain: MAGLSGAQIPDGEFTALVYRLIRDARYAEAVQLLGRELQRSPRSRAGLSLLGYCYYRLQEFALAAECYEQLGQLHPELEQYRLYQAQALYKACLYPEATRVAFLLLDNPAYHSRVLRLQAAIKYSEGDLPGSRSLVEQLLSGEGGEESGGDNETDGQVNLGCLLYKEGQYEAACSKFSATLQASGYQPDLSYNLALAYYSSRQYASALKHIAEIIERGIRQHPELGVGMTTEGFDVRSVGNTLVLHQTALVEAFNLKAAIEYQLRNYEVAQETLTDMPPRAEEELDPVTLHNQALMNMDARPTEGFEKLQFLLQQNPFPPETFGNLLLLYCKYEYFDLAADVLAENAHLTYKFLTPYLYDFLDALITCQTAPEEAFIKLDGLAGMLTEQLRRLTKQVQEARHNRDDEAIKKAVNEYDETMEKYIPVLMAQAKIYWNLENYPMVEKVFRKSVEFCNDHDVWKLNVAHVLFMQENKYKEAIGFYEPIVKKHYDNILNVSAIVLANLCVSYIMTSQNEEAEELMRKIEKEEEQLSYDDPNRKMYHLCIVNLVIGTLYCAKGNYEFGISRVIKSLEPYNKKLGTDTWYYAKRCFLSLLENMSKHMIVIHDSVIQECVQFLGHCELYGTNIPAVIEQPLEEERMHVGKNTVTDESRQLKALIYEIIGWNK

binding [2]: binds
binding [4]: binds
B5: HEAT repeat containing 3 (protein, UniProt Q7Z4Q2 1-680)
chain: MGKSRTKRFKRPQFSPTGDCQAEAAAAANGTGGEEDDGPAAELLEKLQHPSAEVRECACAGLARLVQQRPALPGLARRDAVRRLGPLLLDPSLAVRETAAGALRNLSACGGFEVCDDMVTKDIMTPLVALLKECSAGLDSNEMSLQEKKDQNRNSIENIANETVNVLWNICECSSRAVSIFNKEGCLEIVLKYLSRFPTNVDLAISVAYCLQTVTEDNPELLKSFSATALNMLESALLSPVSSMESLLLKTLVAGTIWNLKDIIPCKSQAEIINALLKILSEVLGMDAGEMVIQMKEAETQRLKTAAEAEEILENTNGDDLIEDDEMEGISHKRRVRRKTFVSDLLPPTDKELRETIALLTAQQTALEIIVNMCCNEDPSDDEWEELSSSDESDAFMENSFSECGGQLFSPLCLSHEVHTALTNYLIPKKIFEKTAFPNSIAVDLCSRNPTWKPLIRKMNTIQCRALFCLQSLVSLLDVEHLGGAAALQTLAQHLSQLLFSQPDFAKHVDFLEAISSALRALLQTMASKNISQCMTPDQLMTLCKAGIHSSNVGVRVNVVSILGITGSVLAKEDGTLETLKNIGCFLLEVTTKDPSLVVAGEALDALFDVFADGKEAERASIQIKLLSALKEFQPVFKMKIRKEGRGNYSTDQLCVLDNVKMNLRRFIAYQETVEKRLTS

binding [2]: binds
binding [4]: binds
B6: serum amyloid A-like 1 (protein, UniProt Q96ER3 1-474)
chain: MDRNPSPPPPGRDKEEEEEVAGGDCIGSTVYSKHWLFGVLSGLIQIVSPENTKSSSDDEEQLTELDEEMENEICRVWDMSMDEDVALFLQEFNAPDIFMGVLAKSKCPRLREICVGILGNMACFQEICVSISSDKNLGQVLLHCLYDSDPPTLLETSRLLLTCLSQAEVASVWVERIQEHPAIYDSICFIMSSSTNVDLLVKVGEVVDKLFDLDEKLMLEWVRNGAAQPLDQPQEESEEQPVFRLVPCILEAAKQVRSENPEWLDVYMHILQLLTTVDDGIQAIVHCPDTGKDIWNLLFDLVCHEFCQSDDPPIILQEQKTVLASVFSVLSAIYASQTEQEYLKIEKVDLPLIDSLIRVLQNMEQCQKKPENSAESNTEETKRTDLTQDDFHLKILKDILCEFLSNIFQALTKETVAQGVKEGQLSKQKCSSAFQNLLPFYSPVVEDFIKILREVDKALADDLEKNFPSLKVQT

binding [1]: binds
binding [2]: binds
binding [3]: binds
binding [4]: binds
B7: intraflagellar transport 27 (protein, UniProt Q9BW83 1-186)
chain: MVKLAAKCILAGDPAVGKTALAQIFRSDGAHFQKSYTLTTGMDLVVKTVPVPDTGDSVELFIFDSAGKELFSEMLDKLWESPNVLCLVYDVTNEESFNNCSKWLEKARSQAPGISLPGVLVGNKTDLAGRRAVDSAEARAWALGQGLECFETSVKEMENFEAPFHCLAKQFHQLYREKVEVFRALA

binding [1]: binds
binding [2]: binds
binding [3]: binds
binding [4]: binds
B8: IFT22 (RAS oncogene family-like 5) (protein, UniProt Q9H7X7 1-185)
chain: MLKAKILFVGPCESGKTVLANFLTESSDITEYSPTQGVRILEFENPHVTSNNKGTGCEFELWDCGGDAKFESCWPALMKDAHGVVIVFNADIPSHRKEMEMWYSCFVQQPSLQDTQCMLIAHHKPGSGDDKGSLSLSPPLNKLKLVHSNLEDDPEEIRMEFIKYLKSIINSMSESRDREEMSIMT

Source: publication PMC3854969
